The record followed here is PubChem BioAssay AID2685 (National Center for Advancing Translational Sciences (NCATS), 2010).

The nature of the test: qHTS Assay for Lipid Storage Modulators in Drosophila S3 Cells.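 For cell number change: cells counted by Cell Tracker Red CMTPX staining in the red channel.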 The note with it: BODIPY lipid droplet fluorescence, 18-24 h; for cell number change: measured here: cell count max response, cells fed with added oleic acid. In a few lines:
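Drosophila S3 cells got compounds at several concentrations plus oleic acid (400 uM solution). Laser-scanning cytometry with 488 nm excitation read lipid droplets at 500-530 nm and cells at 575-640 nm. Percent activity was relative to 20 uM Triacsin C.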
(qHTS replaces the single test concentration by a dilution series.)

Setting [1] is: measured here: lipid fluorescence (Fed channel) AC50, cells fed with added oleic acid.
Where [2] appears, read: measured here: cell number channel AC50, cells fed with added oleic acid.

This is one part of the list. Further columns of the screen follow, without active or inactive calls. The list favours compounds with an active or inconclusive main result. Words in brackets tell the shape of the fitted curve; partial curves, single points and poor fits give uncertain potencies.

A word on the AC50: it is the midpoint of the concentration-response curve, whichever way the signal moves. As to `COC(=O)C(NC(=O)CNS(=O)(=O)c1ccc(Br)cc1)c1ccccc1` (stereo unspecified), the cell number change is 44.2%. In addition, the concentration at half-maximal activity (AC50) under setting [1] was 2.31 µM [rising, full curve]. For the molecule `O=C(N/C=C/c1ccccc1)c1ccccc1`, the cell number change worked out at 0.858%. For the same molecule, the AC50 under setting [1] is 0.092 µM [falling, full curve, poor fit]. On to `O=S(=O)(CCSc1ccccn1)c1nc2ccccc2s1`, for which, under setting [2], the AC50 was 6.51 µM [falling, single point]. Consider `Cc1ccc(Nc2nc(CSc3nnc(-c4ccc(F)cc4)n3C)cs2)cc1`, for which the cell number change was found to be 38%. In addition, the concentration at half-maximal activity (AC50) under setting [2] was 4.11 µM [rising, full curve, poor fit]. For the same molecule, under setting [1], the AC50 was 5.8 µM [rising, full curve].

Take `CC1CCCN(C(=O)C2CCN(CC3CC=CCC3)CC2)C1` (stereo unspecified): the cell number change was -4.39%. Under setting [1], the AC50 is 29.1 µM [rising, single point]. For the molecule `CCCn1c(C)cs/c1=N\C(=S)Nc1ccccc1`, the cell number change amounted to 2.97%. Also, the concentration at half-maximal activity (AC50) under setting [1] was 0.651 µM [rising, partial curve, poor fit]. Regarding `O=C(CSc1nnc(-c2ccco2)o1)NCC(=O)c1ccccc1`, the cell number change is -10%. Also, under setting [1], the half-maximal activity concentration (AC50) was 20.6 µM [rising, single point]. For the molecule `Cc1ccc(-c2cc(C(=O)N/N=C/c3ccc(Cl)cc3)n[nH]2)o1`, the cell number change came to 2.38%. For `CC1=NN(C(=O)c2csc(C)c2)C(O)(C(F)(F)F)C1` (stereo unspecified), the cell number change is -8.38%. On the same count and under the same terms, the same measure for `CCOc1ccc(NC(=O)c2ccc(N3CC4CC(C3)c3cccc(=O)n3C4)c(NC(=O)c3ccncc3)c2)cc1` (stereo unspecified): 22.6%. As for `CC(=O)c1ccc(Cc2ccccc2)cc1`, the concentration at half-maximal activity (AC50) under setting [1] is 6.51 µM [falling, single point]. For the molecule `CSc1ccc(CN(C)C(=O)C(c2ccccc2)c2ccccc2)cc1`, the cell number change amounted to 4.17%. `CCCCn1c2c(c(=O)n(C)c1=O)C(CC(=O)OCC(=O)Nc1cccc(C(F)(F)F)c1)C(=O)N2` (stereo unspecified): the cell number change is -5.58%. For the same molecule, under setting [1], the concentration at half-maximal activity (AC50) was 6.51 µM [falling, partial curve]. In the case of `Cc1ccsc1CN(C)CC(=O)Nc1cccc(S(=O)(=O)N(C)c2ccccc2)c1`, the cell number change was determined as 123%. For the same molecule, the AC50 under setting [2] is 6.51 µM [rising, partial curve].

Consider `CCOc1ccc(/C=N/NC(=O)c2[nH]ncc2Br)c(O)c1`, for which the cell number change was -33.1%. The half-maximal activity concentration (AC50) under setting [2] is 18.4 µM [falling, single point]. In addition, the AC50 under setting [1] was 20.6 µM [falling, partial curve]. As for `COc1ccccc1CNc1nc2nc(C)cc(=O)n2[nH]1`, the cell number change was -12.3%.

`Cc1ccc(CNC(=O)COc2ccc(S(=O)(=O)NC(C)C)cc2)cc1`: the cell number change came to 98%. Under setting [2], the concentration at half-maximal activity (AC50) was 14.6 µM [rising, partial curve]. The AC50 under setting [1] was 2.91 µM [rising, partial curve]. For the molecule `c1ccc(-n2ncc3c(N4CCCCC4)ncnc32)cc1`, the AC50 runs as follows: under setting [2], 0.291 µM [rising, partial curve]; under setting [1], 16.4 µM [rising, partial curve]. Regarding `Cc1cc(C)cc(CSCC(=O)N/N=C/c2ccc(OCC(=O)NCc3ccco3)cc2)c1`, the cell number change is -7.18%.

`CCc1ccc2c(COC(=O)c3n[nH]c4ccccc34)cc(=O)oc2c1`: the cell number change was -19.6%. Take `CCc1ccc2nc(SCC(=O)Nc3ccccc3N3CCOCC3)c(C#N)cc2c1`: the cell number change is -15.6%. Moreover, under setting [1], the AC50 was 3.26 µM [falling, full curve, poor fit]. In the case of `CCc1ccccc1S(=O)(=O)Cc1ccc(C(=O)NC2CCCC2)o1`, the cell number change is -18.6%. In the case of `Cc1cc(Cl)ccc1OCC(=O)n1cc(C(=O)c2cc(Cl)ccc2O)cn1`, the cell number change was -17.8%. Besides, under setting [1], the half-maximal activity concentration (AC50) was 0.116 µM [falling, partial curve, poor fit]. On to `O=C(CCCn1c(=S)[nH]c2cc3c(cc2c1=O)OCO3)N1CCN(c2ccccc2)CC1`, for which the cell number change is -11.7%. In addition, the concentration at half-maximal activity (AC50) under setting [2] is 0.082 µM [rising, full curve, poor fit]. As for `COc1cccc(-c2nn(C)c3sc(C(=O)Nc4ccc5c(c4)OCCO5)cc23)c1`, the cell number change was -30.4%. In addition, under setting [2], the half-maximal activity concentration (AC50) was 29.1 µM [falling, single point].

Regarding `O=C(CN(C(=O)CNC(=O)c1cccs1)c1cccc(F)c1)NC1CCCC1`, the cell number change was found to be 16.7%. Further, the AC50 under setting [2] is 0.116 µM [rising, full curve, poor fit]. As for `O=C(CN1C(=O)C2CCCCC2C1=O)Nc1cc(C(F)(F)F)ccc1N1CCCC1` (stereo unspecified), the cell number change was found to be 29.4%. In addition, under setting [1], the concentration at half-maximal activity (AC50) is 23.1 µM [rising, single point]. Take `CCc1c(O)nc(SCC(=O)N2CCc3cc(OC)c(OC)cc3[C@@H]2C)[nH]c1=O`: the cell number change is 0.135%. Moreover, under setting [1], the concentration at half-maximal activity (AC50) was 0.517 µM [rising, full curve]. For the molecule `COC(=O)c1cc(NC(=O)Cc2ccc(OC)cc2)cc(C(=O)OC)c1`, the cell number change was found to be 34.2%. Moreover, the AC50 under setting [2] was 0.13 µM [rising, full curve, poor fit]. For `CCNc1nc(N)nc(Oc2ccc(OCc3ccccc3)nn2)n1`, the cell number change was determined as 20.9%. For the same molecule, under setting [1], the concentration at half-maximal activity (AC50) was 29.1 µM [rising, single point].

As to `Cc1cccc(N2CCN(C(C)C(=O)N3CCc4ccccc43)CC2)c1C` (stereo unspecified), the cell number change was 34.3%. In addition, the half-maximal activity concentration (AC50) under setting [2] is 29.1 µM [rising, single point]. For the molecule `Cc1nc(C)c(C(=O)O)s1`, the cell number change is 43.1%. Further, under setting [2], the AC50 was 0.184 µM [rising, full curve]. As to `COC(=O)C1=C(C(=O)c2ccc(C)cc2)C(c2ccc(OC)c(OC)c2)n2nnnc2N1` (stereo unspecified), the AC50 is 0.92 µM [falling, full curve] under setting [2] and 0.461 µM [falling, full curve] under setting [1]. Take `O=C(NCCCn1ccnc1)C(=O)NCC1OCCCN1S(=O)(=O)c1ccc(Cl)cc1` (stereo unspecified): the concentration at half-maximal activity (AC50) under setting [2] was 6.51 µM [falling, single point] and the AC50 under setting [1] is 32.6 µM [rising, single point]. For the molecule `CC1CN(S(=O)(=O)c2ccc(F)cc2)CN1C(=O)N1CCOCC1` (stereo unspecified), the cell number change was -22.2%. Further, the AC50 under setting [1] is 29.1 µM [rising, single point]. On to `CC(NS(=O)(=O)c1ccc([N+](=O)[O-])cc1)C(=O)NN` (stereo unspecified), for which the concentration at half-maximal activity (AC50) by setting is: under setting [2], 6.51 µM [rising, single point]; under setting [1], 6.51 µM [rising, single point]. With `CCCCn1nnnc1SCC(=O)Nc1ccc2c(c1)OCO2`, the cell number change amounted to 3.85%. Under setting [2], the concentration at half-maximal activity (AC50) is 0.082 µM [rising, full curve, poor fit]. Further, the AC50 under setting [1] is 3.26 µM [rising, full curve]. In the case of `O=C1CN2C(=Nc3ccc(Cl)cc3C2c2ccccc2)CN1` (stereo unspecified), the cell number change came out at 101%. The half-maximal activity concentration (AC50) under setting [2] is 16.4 µM [rising, partial curve]. Also, the concentration at half-maximal activity (AC50) under setting [1] was 16.4 µM [rising, partial curve]. Turning to `CC(C)=NNc1cc([N+](=O)[O-])cc2c1C(=O)N(C)S2=O` (stereo unspecified), the cell number change was -30.9%. Besides, under setting [2], the concentration at half-maximal activity (AC50) was 0.461 µM [falling, full curve]. Further, the concentration at half-maximal activity (AC50) under setting [1] was 0.731 µM [falling, full curve].

For the molecule `Cc1ccc(C)c(N(CC(=O)NC2CCCC2)S(=O)(=O)c2ccccc2)c1`, the cell number change is -19.4%.

Regarding `COC(=O)CSC(=S)N1C(C)CCCC1C` (stereo unspecified), the cell number change was determined as 2.32%. Moreover, the concentration at half-maximal activity (AC50) under setting [2] was 6.51 µM [falling, single point]. For the same molecule, under setting [1], the half-maximal activity concentration (AC50) is 6.51 µM [falling, single point]. As for `COc1cc(/C=N/Nc2ccc(Cl)c(C(=O)O)c2)ccc1OC(=O)c1ccccc1F`, the cell number change worked out at 7.66%.

For `CCOC(=O)Cc1csc(SCC(=O)/C(C#N)=C(\C)N)n1`, the cell number change was 43.1%. For the same molecule, the half-maximal activity concentration (AC50) under setting [2] was 10.3 µM [rising, partial curve, poor fit].

`O=C(Cc1cccs1)NCC1CCCO1` (stereo unspecified): the cell number change worked out at 32.4%. For the same molecule, under setting [2], the half-maximal activity concentration (AC50) was 32.6 µM [rising, single point]. Take `O=C(N/N=C/c1sc2ccccc2c1O)c1cccc2ccccc12`: the cell number change is -45.6%. Besides, the AC50 under setting [2] is 1.84 µM [falling, partial curve]. Further, under setting [1], the concentration at half-maximal activity (AC50) was 6.51 µM [rising, partial curve]. Regarding `COc1ccc(OC)c(C(O)c2coc3ccc(O)c(CN4CCOCC4)c23)c1` (stereo unspecified), the cell number change was -28.5%. On to `O=C(COC(=O)C1C2CC3OC(=O)C1C3C2)Nc1cccc(C(F)(F)F)c1` (stereo unspecified), for which the cell number change is 6.67%. `CCC1CCc2sc(C(=O)NCC(c3ccc(OC)cc3)N3CCCC3)cc2C1` (stereo unspecified): the AC50 is 6.51 µM [rising, single point] under setting [2] and 0.731 µM [falling, single point] under setting [1]. In the case of `Cc1ccc(N(CCC#N)C(=O)COC(=O)c2cc(C)no2)cc1`, the AC50 under setting [1] is 3.66 µM [falling, single point]. `O=C(O)C1CSC(c2ccccc2)N1C(=O)c1ccco1` (stereo unspecified): the cell number change is 0.926%.

For `Cc1cccc2cc(CN(CCN3CCCC3)C(=O)NC3CCCCC3)c(=O)[nH]c12`, the cell number change is 11.4%. Moreover, the AC50 under setting [2] is 6.51 µM [rising, single point]. Take `CC(C)(C)c1ccc(C(=O)NCC2CCCN2S(=O)(=O)c2ccccc2)cc1` (stereo unspecified): the cell number change is 20%. Turning to `Cc1cc(NC(=O)C2CCN(C(=O)c3ccco3)CC2)ccc1Br`, the cell number change came to 29.1%. Moreover, the AC50 under setting [1] was 29.1 µM [rising, single point]. Consider `Cn1nnnc1SCc1cc(=O)[nH]c2ccccc12`, for which the cell number change is -0.117%. Besides, the concentration at half-maximal activity (AC50) under setting [1] is 0.731 µM [falling, single point]. For the molecule `O=C(CC(=O)Nc1nc(C23CC4CC(CC(C4)C2)C3)cs1)NCCO`, the cell number change is -26.6%. Also, the AC50 under setting [1] is 9.2 µM [falling, partial curve, poor fit].

As for `COc1ccccc1N=c1oc2c(OC)cccc2cc1C(=O)NCc1ccco1`, the cell number change is -5.31%. Moreover, the AC50 under setting [1] was 0.731 µM [rising, full curve, poor fit]. Regarding `Cc1nn(S(=O)(=O)c2ccccc2)c(C)c1S(=O)(=O)N1CCOCC1`, the cell number change was found to be 3.4%. Moreover, under setting [1], the concentration at half-maximal activity (AC50) was 29.1 µM [rising, single point]. On to `Cc1ccc(OCCCCNC(C)c2ccccc2)c(C)c1` (stereo unspecified), for which the cell number change was found to be 5.57%. As for `CC(C)(NO)/C(=N\O)c1ccccc1`, the cell number change is -0.919%. The concentration at half-maximal activity (AC50) under setting [1] is 3.26 µM [falling, single point].

For `CCOc1ccccc1C(=S)NC1CCCCC1`, the cell number change is -24.3%. For `COc1cccc(CN2C(=O)c3ccccc3S2(=O)=O)c1`, the cell number change is 21.7%. Also, the AC50 under setting [1] is 6.51 µM [falling, single point]. With `Cc1cc(CSc2ccccc2)ccc1NC(=O)c1cccc([N+](=O)[O-])c1`, the cell number change was -38.2%. The AC50 under setting [2] is 1.3 µM [falling, full curve]. In addition, the half-maximal activity concentration (AC50) under setting [1] is 0.651 µM [falling, full curve]. Consider `Cc1csc2c(=O)sc(NC(=O)c3ccco3)nc12`, for which the cell number change came out at 7.19%.

In the case of `Cc1cc(N=Cc2cc(Cl)ccc2O)no1`, under setting [1], the AC50 is 2.91 µM [falling, full curve].
